# Test results reported in PubChem BioAssay AID1645883 (National Center for Advancing Translational Sciences (NCATS), 2021).
# Chains of the proteins cited; added tags and fusions are not shown. Lines headed by an entry give the natural chain unless they say otherwise; changes in a name come on top.
# UniProt O95398: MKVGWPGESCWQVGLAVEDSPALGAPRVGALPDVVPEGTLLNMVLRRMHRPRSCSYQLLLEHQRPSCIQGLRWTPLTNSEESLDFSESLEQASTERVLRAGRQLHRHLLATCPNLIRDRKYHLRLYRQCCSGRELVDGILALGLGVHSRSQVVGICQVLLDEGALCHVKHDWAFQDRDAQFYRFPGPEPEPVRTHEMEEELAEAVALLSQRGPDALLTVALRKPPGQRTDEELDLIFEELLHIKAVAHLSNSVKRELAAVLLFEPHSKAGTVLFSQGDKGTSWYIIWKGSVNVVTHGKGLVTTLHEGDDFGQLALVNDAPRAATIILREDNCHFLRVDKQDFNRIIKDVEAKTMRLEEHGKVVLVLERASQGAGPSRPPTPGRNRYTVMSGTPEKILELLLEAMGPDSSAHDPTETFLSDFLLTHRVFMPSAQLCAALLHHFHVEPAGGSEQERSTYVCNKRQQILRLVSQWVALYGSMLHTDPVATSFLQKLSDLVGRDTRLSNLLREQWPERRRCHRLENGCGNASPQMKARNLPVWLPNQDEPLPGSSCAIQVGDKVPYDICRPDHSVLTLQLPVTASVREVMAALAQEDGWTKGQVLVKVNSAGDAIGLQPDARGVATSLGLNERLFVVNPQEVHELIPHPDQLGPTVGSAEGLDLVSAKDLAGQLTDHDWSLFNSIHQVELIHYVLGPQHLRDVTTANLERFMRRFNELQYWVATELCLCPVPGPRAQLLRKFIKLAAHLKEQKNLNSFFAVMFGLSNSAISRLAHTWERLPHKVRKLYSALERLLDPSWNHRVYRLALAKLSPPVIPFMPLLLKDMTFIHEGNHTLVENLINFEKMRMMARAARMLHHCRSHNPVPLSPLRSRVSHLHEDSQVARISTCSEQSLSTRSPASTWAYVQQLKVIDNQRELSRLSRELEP
# What follows is the remainder of the data, with few or none of the hits. Inconclusive results are not listed. Calls of active or inactive are those of the source. The call rests on the fitted dose curve; in most records, active means well fitted activation curve with a large enough effect; inconclusive means small, poorly fitted or top-dose-only effect; inactive means no such curve, though single readings can be large or run the other way.
# Target: Rap guanine nucleotide exchange factor 3 (Homo sapiens) (UniProt O95398)
# Assay: Validation qHTS for agonist of cAMP-regulated guanine nucleotide exchange factor 3 (EPAC1); further: nearly all actives have a fitted effect of over 70% in size
# Details: EPAC1 Rap1b BODIPY-GDP exchange, fluorescence; hits give high values; percent of cAMP control response
# Excerpt: Assay Provider (PI): Xiaodong Cheng Ph.D.
# The University of Texas Medical Branch, […], TX
# In multi-cellular eukaryotic organisms, the effects of cAMP are transduced by two ubiquitously-expressed intracellular cAMP receptors, the classic protein kinase A/cAMP-dependent protein kinase (PKA/cAPK) and the more recently discovered exchange protein directly activated by cAMP/cAMP-regulated guanine nucleotide exchange factor (EPAC/cAMP-GEF). Both PKA and EPAC are ubiquitously expressed in all tissues, and an increase in intracellular cAMP levels will lead to the activation of both PKA and EPAC. […]
# This qHTS will be used to screen the Molecular Libraries Small Molecule Repository (MLSMR) as a concentration-titration series using the NCGC unique quantitative screening (qHTS) platform to find activators for EPAC1. […] Activators are identified by monitoring the change in fluorescence signal as the exchanged free BODIPY-GDP has a reduced fluorescence compared to Rap1-bound BODIPY-GDP. […]
# Briefly, three uL of reagents (100 nM EPAC1, 250 nM RAP1B-BODIPY-GDP, 50 uM GDP) were dispensed into a 1536-well Greiner black solid-bottom medium binding assay plate. […] The assay plates were read at 5 minute intervals for 30 minutes in the ViewLux plate reader using 480nm excitation and 540nm emission filters. […]
# On the % scale 0 is the no-effect control and ±100 the full control effect.
row,Compound,max response
1,CC(C)(C)c1ccc(O)cc1,inactive: -61.6%
